The text below walks through data of paper PMC5573351.

Sequences of proteins named here, by UniProt entry; tags and fusion partners are left off. A change or cut given only in a name is not applied to a line headed by its entry.
UniProt O00571: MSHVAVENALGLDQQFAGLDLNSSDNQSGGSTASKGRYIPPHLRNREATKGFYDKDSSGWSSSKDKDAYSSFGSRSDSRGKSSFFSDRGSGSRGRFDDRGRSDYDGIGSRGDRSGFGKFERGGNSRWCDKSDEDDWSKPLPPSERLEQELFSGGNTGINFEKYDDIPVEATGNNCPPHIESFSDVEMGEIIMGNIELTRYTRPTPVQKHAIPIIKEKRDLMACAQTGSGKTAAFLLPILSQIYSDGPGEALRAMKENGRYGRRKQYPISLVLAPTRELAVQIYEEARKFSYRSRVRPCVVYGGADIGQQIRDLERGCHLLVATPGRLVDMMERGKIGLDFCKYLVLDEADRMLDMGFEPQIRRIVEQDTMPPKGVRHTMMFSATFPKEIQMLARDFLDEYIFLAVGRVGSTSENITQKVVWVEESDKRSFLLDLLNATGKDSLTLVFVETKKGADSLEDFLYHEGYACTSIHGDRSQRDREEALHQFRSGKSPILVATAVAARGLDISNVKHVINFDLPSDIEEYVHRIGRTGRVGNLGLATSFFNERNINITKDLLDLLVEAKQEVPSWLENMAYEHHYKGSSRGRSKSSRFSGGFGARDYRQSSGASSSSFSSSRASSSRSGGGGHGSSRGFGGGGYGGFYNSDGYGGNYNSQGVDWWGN
UniProt P23258: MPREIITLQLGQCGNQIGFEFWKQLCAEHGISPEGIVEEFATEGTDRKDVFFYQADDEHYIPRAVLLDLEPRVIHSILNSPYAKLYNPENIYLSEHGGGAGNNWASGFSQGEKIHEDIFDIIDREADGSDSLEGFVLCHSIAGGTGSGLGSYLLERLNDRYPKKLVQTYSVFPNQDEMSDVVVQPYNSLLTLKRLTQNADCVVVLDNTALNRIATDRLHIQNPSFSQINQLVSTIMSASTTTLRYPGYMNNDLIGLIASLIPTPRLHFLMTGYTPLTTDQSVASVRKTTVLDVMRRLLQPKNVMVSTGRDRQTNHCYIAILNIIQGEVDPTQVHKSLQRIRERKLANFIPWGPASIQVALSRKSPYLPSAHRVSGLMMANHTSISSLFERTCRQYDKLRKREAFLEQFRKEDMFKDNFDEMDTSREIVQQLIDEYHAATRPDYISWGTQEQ

The assay addresses DEAD-box RNA helicase DDX3 (human (endogenous in HCT116)) (UniProt O00571). The assay is described as follows: co-IP; HCT116 cell extracts (500 μg; PBS with 0.5% NP-40, protease inhibitors), pre-cleared, incubated with anti-DDX3, anti-p53, anti-phospho-Ser15-p53 antibody or control IgG at 4 °C overnight, protein G-Sepharose, washed three times with PBS; western blot with anti-γ-tubulin, anti-DDX3, anti-p53 and anti-phospho-Ser15-p53. For orientation: In western blotting, separated proteins are transferred to a membrane and probed.

These are yes or no findings as the source states them, for the method shown. In cells and extracts the contact can be indirect. A result given as binding can be weak or reduced; the word gives no strength.

With γ-tubulin (from UniProt P23258), the binding result is given as “binds”.
